Measured values as given in article PMC6912275.
Results are given in words; binding and its absence hold for the method and conditions named. Binding seen in cells or lysates may run through a third protein. Some binding calls cover weakened binding; strength is not graded here.

Protein sequences, listed by entry. Tags and fused reporters are not part of them. Lines headed by an entry give the natural chain unless they say otherwise; changes in a name come on top. Chains listed by the source or under a name are the forms on record and can include a tag or linker.
UniProt O95622: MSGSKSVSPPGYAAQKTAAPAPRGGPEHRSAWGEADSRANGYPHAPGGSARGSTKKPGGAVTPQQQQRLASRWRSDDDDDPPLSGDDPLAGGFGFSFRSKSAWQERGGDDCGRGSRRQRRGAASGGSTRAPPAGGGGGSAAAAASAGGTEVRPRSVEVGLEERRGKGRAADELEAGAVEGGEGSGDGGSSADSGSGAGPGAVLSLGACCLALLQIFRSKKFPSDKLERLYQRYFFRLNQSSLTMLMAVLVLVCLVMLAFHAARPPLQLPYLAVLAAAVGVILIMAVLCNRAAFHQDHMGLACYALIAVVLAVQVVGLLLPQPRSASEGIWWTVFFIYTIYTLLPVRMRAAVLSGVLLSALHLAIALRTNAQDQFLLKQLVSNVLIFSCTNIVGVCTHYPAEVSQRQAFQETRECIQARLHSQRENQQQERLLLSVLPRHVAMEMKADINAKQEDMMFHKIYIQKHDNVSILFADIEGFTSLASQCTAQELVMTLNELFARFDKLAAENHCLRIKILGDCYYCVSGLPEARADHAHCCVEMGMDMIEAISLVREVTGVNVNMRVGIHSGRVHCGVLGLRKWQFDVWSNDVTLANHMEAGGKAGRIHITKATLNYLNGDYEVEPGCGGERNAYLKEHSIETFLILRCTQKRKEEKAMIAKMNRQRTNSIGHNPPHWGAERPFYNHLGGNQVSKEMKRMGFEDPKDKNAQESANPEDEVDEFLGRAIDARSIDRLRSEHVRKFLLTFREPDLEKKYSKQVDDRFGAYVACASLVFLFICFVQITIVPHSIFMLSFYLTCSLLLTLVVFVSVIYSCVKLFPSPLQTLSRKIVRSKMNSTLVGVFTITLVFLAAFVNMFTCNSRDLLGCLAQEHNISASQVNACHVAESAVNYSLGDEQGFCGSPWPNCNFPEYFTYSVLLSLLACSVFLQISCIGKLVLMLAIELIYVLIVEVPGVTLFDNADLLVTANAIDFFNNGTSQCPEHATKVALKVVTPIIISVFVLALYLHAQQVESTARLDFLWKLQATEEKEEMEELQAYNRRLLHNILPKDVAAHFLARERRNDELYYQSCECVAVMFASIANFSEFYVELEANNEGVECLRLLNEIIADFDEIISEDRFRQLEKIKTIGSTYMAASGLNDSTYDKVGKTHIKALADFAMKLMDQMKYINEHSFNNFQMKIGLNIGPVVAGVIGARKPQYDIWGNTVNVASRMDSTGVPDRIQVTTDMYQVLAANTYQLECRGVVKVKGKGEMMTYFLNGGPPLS
UniProt P24588: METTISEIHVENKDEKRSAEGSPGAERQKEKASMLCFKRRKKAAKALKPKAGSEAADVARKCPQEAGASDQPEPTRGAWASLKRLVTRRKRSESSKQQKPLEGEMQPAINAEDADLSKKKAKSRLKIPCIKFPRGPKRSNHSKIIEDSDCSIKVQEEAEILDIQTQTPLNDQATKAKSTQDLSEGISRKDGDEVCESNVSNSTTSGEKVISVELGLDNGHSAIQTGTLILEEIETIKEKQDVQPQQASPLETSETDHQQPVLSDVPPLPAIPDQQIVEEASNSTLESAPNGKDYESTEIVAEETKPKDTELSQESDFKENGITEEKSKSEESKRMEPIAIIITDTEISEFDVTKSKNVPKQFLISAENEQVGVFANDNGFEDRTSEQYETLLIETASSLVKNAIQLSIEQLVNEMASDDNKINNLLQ
AKAP79^77–108-VC (P24588, form named): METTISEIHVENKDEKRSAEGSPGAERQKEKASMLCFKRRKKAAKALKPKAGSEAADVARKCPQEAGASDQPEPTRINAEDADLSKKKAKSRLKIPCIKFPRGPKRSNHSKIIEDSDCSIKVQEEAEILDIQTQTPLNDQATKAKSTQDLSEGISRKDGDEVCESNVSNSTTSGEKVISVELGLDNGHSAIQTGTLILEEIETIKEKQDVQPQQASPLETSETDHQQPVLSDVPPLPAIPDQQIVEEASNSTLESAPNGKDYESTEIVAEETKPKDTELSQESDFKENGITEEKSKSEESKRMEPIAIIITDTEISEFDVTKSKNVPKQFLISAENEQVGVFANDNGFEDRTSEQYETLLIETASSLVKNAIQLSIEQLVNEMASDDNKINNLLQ

What was measured:
[1] = target: human AC5 linked by the N-terminus to the N-terminal BiFC fragment of the Venus fluorescent protein (VN155-AC5) (human) (UniProt O95622); assay: split reporter; BiFC (Venus VN155 + VC155) in living CAD VN-AC5/D2L cells transfected with 1 μg of VC plasmid; confocal images 48 h after transfection, line profile analysis
[2] = target: T1, Endogenous NAPA (human (endogenous in HEK 293)) (UniProt P54920); assay: condition: only cells treated with vehicle, without quinpirole; co-IP; endogenous NAPA immunoprecipitated from lysate of HEK AC5/D2L cells treated overnight with vehicle (no quinpirole); AC activity measured in the immunoprecipitate
T1 sequence: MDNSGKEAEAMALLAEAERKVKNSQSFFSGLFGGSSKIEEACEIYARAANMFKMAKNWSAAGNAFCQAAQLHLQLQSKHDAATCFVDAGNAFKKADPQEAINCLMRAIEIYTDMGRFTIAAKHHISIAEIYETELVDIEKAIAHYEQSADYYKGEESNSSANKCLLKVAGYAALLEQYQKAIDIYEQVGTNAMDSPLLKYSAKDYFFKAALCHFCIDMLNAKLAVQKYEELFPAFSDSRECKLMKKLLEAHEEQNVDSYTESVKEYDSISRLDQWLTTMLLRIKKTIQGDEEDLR

| binding [1] | binding [2] | Substance |
| --- | --- | --- |
| binds |  | AKAP79-VC (from UniProt P24588 1-427) |
| no binding |  | AKAP79^77–108-VC (from UniProt P24588 1-427) |
|  | no binding | human AC type 5 (in HEK-AC5/D2L cells) (from UniProt O95622 1-1261) (enzyme) |
